Test results taken from paper PMC10036040.
Results are given in words; binding and its absence hold for the method and conditions named. Binding seen in cells or lysates may run through a third protein. Here binding means that the protein was enriched with, or labelled near, the bait; the list need not be complete.

Sequences of proteins named here, by UniProt entry; tags and fusion partners are left off.
UniProt P08670: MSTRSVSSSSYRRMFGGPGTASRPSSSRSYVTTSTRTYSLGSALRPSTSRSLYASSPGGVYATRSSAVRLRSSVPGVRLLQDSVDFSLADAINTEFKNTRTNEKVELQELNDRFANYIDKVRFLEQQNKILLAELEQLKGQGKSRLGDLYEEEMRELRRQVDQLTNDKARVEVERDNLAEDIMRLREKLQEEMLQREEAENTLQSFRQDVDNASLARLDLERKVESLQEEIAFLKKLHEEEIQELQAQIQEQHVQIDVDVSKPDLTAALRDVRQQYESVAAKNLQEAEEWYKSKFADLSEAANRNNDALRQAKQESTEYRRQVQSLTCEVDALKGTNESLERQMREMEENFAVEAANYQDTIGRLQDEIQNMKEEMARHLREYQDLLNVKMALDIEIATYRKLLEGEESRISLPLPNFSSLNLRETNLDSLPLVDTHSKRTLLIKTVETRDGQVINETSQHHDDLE

Target: T1, Ubiquitin carboxyl-terminal hydrolase L3 (UCHL3) (human (endogenous in Hep3B and Huh7)) (UniProt P15374)
T1 sequence: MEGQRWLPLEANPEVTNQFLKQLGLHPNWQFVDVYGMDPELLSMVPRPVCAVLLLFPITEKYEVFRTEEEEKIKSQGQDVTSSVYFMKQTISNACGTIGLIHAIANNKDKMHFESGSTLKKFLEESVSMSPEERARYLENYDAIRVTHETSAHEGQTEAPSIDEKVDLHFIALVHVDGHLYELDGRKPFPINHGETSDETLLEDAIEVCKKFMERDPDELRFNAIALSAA
Experiment: affinity purification with mass spectrometry; co-immunoprecipitation with UCHL3 antibody followed by mass spectrometry (IP-MS); cell line not named

Q: With Vimentin (from UniProt P08670 1-466) as the substance, how does the binding read?
A: Its binding is “binds”.
